{
  "sequences": {"note": "Chains of the proteins cited; added tags and fusions are not shown.", "UniProt Q9UMS4": "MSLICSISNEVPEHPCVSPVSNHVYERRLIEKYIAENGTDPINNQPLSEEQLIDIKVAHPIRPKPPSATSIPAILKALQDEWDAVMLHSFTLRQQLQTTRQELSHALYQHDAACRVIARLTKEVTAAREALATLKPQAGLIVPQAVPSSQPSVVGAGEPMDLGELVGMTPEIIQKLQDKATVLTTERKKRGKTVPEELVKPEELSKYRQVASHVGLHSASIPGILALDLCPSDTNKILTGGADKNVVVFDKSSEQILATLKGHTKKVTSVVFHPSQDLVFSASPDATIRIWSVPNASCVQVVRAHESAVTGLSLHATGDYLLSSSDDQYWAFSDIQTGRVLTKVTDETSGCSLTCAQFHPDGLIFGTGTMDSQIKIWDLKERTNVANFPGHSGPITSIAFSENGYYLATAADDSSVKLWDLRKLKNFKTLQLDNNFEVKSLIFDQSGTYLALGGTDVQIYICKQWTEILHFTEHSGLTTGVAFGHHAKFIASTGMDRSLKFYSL", "UniProt Q99459": "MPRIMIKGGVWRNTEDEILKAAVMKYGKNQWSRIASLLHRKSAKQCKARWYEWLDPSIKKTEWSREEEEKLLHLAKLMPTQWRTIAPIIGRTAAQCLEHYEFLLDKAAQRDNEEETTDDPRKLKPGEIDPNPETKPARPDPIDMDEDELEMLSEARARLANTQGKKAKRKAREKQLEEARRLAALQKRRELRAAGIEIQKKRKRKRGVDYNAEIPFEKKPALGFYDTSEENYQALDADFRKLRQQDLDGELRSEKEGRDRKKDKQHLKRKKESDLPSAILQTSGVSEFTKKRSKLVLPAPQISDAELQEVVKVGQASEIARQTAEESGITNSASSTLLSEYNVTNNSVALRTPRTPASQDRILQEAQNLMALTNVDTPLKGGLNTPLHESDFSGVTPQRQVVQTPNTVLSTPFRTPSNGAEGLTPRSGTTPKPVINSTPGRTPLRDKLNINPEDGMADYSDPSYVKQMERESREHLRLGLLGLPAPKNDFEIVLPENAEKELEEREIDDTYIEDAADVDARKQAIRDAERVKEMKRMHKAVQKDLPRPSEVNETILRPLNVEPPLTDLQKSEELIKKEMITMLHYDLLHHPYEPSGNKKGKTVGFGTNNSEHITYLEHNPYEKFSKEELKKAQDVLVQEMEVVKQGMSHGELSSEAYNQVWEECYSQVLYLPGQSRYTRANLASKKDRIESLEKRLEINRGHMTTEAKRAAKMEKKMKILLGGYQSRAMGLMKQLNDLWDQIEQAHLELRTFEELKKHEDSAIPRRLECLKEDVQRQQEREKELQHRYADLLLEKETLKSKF"},
  "source": "paper PMC3371764",
  "target": "GFP-tagged SNEV (SNEV^hPrp19/hPso4) (UniProt Q9UMS4)",
  "assay": "co-IP; GFP-Trap beads (ChromoTek) with cleared lysate of GFP-SNEV-Hela cells (1 mg total protein), 1 h at 4°C; lysis buffer 50 mM Hepes-KOH pH 7.5, 150 mM KCl, 1% Triton X-100; cells treated with 100 μM H2O2 or left untreated; Western blot",
  "note": "Results are given in words; binding and its absence hold for the method and conditions named. In cells and extracts the contact can be indirect. Some binding calls cover weakened binding; strength is not graded here.",
  "data": [
    {"substance": "CDC5L (from UniProt Q99459 1-802)", "values": [
      {"measurement": "binding", "value": "binds"}
    ]}
  ]
}
